# “And” between values parts separate entries of the source, which are not always exact repeats. Identical values can stand only once. Hit rate of the full screen: of about 310,000 compounds, about 17,000 (5.5%) were called active. This list was built around the results that the source calls inconclusive (neither active nor inactive); the mix of calls is not that of the screen. The call rests on the fitted dose curve; in most records, active means well fitted inhibition curve with a large enough effect; inconclusive means small, poorly fitted or top-dose-only effect, or effect the other way; inactive means no such curve, though single readings can be large or run the other way. A potency beside an inconclusive call is a rough fit, not a confirmed value.
# The chains behind the UniProt entries cited, without tags or fusion partners. Where a name states a change or a piece, a line headed by the entry shows the natural chain unless it says otherwise.
# UniProt P51450: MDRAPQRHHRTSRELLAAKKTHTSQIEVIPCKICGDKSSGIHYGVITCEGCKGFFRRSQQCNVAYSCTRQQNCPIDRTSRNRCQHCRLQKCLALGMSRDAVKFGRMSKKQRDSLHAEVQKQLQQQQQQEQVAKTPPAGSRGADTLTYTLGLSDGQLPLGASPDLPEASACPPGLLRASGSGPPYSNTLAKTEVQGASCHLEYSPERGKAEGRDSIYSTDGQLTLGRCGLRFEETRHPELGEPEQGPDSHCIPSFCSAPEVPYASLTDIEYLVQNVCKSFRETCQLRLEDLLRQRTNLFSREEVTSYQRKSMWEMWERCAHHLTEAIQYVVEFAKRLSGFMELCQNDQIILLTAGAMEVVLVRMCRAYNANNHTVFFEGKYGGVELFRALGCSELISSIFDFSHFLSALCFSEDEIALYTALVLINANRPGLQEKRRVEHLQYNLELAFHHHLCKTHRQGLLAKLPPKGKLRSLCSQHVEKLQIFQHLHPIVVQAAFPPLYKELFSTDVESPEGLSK
# Target: Nuclear receptor ROR-gamma (Mus musculus) (UniProt P51450)
# Experiment: qHTS for inhibitors of ROR gamma transcriptional activity; further: nearly all actives have a fitted effect of over 60% in size
# Conditions: Drosophila S2 Gal4-RORgamma UAS-luciferase reporter, 20 h; series mostly up to 53.6 µM
# Outline: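 A Gal4/UAS one-hybrid system in insect cells: metallothionein-promoter Gal4–ROR gamma fusion plus Photinus luciferase reporter. Copper sulfate 700 uM final, 20 hr ambient incubation, luminescent detection after 10 min with reagent.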
# Potency means the concentration at half of the fitted maximal effect.
row,Compound,Potency
1,CCOC(=O)c1[nH]c2ccc(OC)cc2c1NC(=S)N1CCN(c2ccccc2)CC1,inactive
2,N#Cc1c(NC(=O)C2CC=CCC2C(=O)O)sc2c1CCCCCC2 (stereo not drawn),"inconclusive: 1.26 µM [activator, single point]"
3,CCc1ccc(CNc2ccc3c(c2)ncn3CC)cc1,inactive
4,O=C(CSc1ncn[nH]1)Nc1ccc(OCc2ccccc2)cc1,"inconclusive: 6.31 µM [activator, single point]"
5,COc1ccccc1CNC(=O)CN(C)S(=O)(=O)c1ccc(Br)s1,inactive
6,Cc1ccc(NCCC(=O)c2cccc([N+](=O)[O-])c2)cc1,"inconclusive: 35.5 µM [inhibitor, single point]"
7,CCCCCCCC/C=C\CCCCCCCC(=O)NCCc1ccc(O)c(O)c1,"inconclusive: 14.1 µM [inhibitor, single point]"
8,Nc1ccccc1S(=O)(=O)Nc1cccc2cccnc12,active: 6.31 µM and active: 1.58 µM
9,Cc1cc(C(F)(F)F)c(C#N)c(SCC(=O)Nc2nc3ccccc3s2)n1,"inconclusive: 35.5 µM [activator, single point]"
10,COc1cc(CCN2C(=O)c3cccc4cccc(c34)C2=O)c(S(=O)(=O)N2CCC(C)CC2)cc1OC,"inconclusive: 7.08 µM [activator, partial curve]"
11,CCn1c(=O)n(CC)c2cc(N3CCCC3)c(NC(=O)c3ccccc3F)cc21,inactive
12,C=CCOC(=O)c1[nH]c2c(c1C)C(=O)CC(c1cc(OC)c(OC)c(OC)c1)C2 (stereo not drawn),"inconclusive: 4.47 µM [activator, single point]"
13,CC1=Nc2ccc(Br)cc2C(c2ccccc2)N1CC(=O)NN (stereo not drawn),inactive
14,CCCCNC(=O)C1CC(c2ccc(C(F)(F)F)cc2)=NO1 (stereo not drawn),"inconclusive: 11.2 µM [activator, partial curve]"
15,CN(C)c1ccc(-n2cc3c(=O)n(C)c(=O)n(C)c3c2)cc1,"inconclusive: 35.5 µM [activator, single point]"
16,O=C(NCc1cccs1)c1ccc(Cl)s1,"inconclusive: 15.8 µM [activator, single point]"
17,CN(C)S(=O)(=O)c1cccc(NC(=S)N/N=C/c2cccc(O)c2)c1,active: 8.91 µM
18,Cc1ccc(NC(=O)CCOc2ccccc2)cc1,inactive
19,O=S(=O)(/N=C/c1c(O)ccc2ccccc12)c1cccs1,"inconclusive: 14.1 µM [inhibitor, partial curve]"
20,Cn1c(=O)c(CCc2ccccc2)nc2cnc(N3CCOCC3)nc21,"inconclusive: 35.5 µM [activator, single point]"
21,CCn1c(/C=C/c2ccc(O)c(O)c2)nc2ccccc2c1=O,inactive
22,c1cc(C(c2nnnn2C2CCCC2)N2CCOCC2)ccn1 (stereo not drawn),"inconclusive: 22.4 µM [inhibitor, single point]"

row,Compound,Potency
1,O=C1NC(=O)C(Cc2ccc(OCCN3COc4ccccc4C3=O)cc2)S1 (stereo not drawn),"inconclusive: 17.8 µM [activator, partial curve]"
2,COC(=O)c1ccc(N2NC(=O)/C(=C/c3ccc(OC)c(OC)c3)C2=O)cc1,inactive
3,COc1cccc(C2N(c3cccc(Cl)c3)C(=O)C3CCCN32)c1OC (stereo not drawn),"inconclusive: 5.62 µM [inhibitor, single point]"
4,CC(=O)Nc1sc(C)c(C)c1C(=O)OCCOc1ccccc1,"inconclusive: 8.91 µM [activator, single point]"
5,CC(C)(C)C1=C[C@@H](CO)C[C@@H](CO)C1,inactive
6,CCc1ccc2c(c1)C(c1ccc([N+](=O)[O-])cc1)=NNC(c1ccc(Br)cc1)=N2,"inconclusive: 17.8 µM [inhibitor, single point]"
7,CCCCCCNc1nc(NCc2ccco2)nc(OCC)n1,"inconclusive: 22.4 µM [inhibitor, single point]"
8,Cc1cn(C2CC3OCC(NC(=O)C(Cc4ccccc4)NC(=O)OC(C)(C)C)C3O2)c(=O)[nH]c1=O (stereo not drawn),inactive
9,O=C(C1CCC(N2C(=O)C3CC=CCC3C2=O)CC1)N1CCCCC1 (stereo not drawn),"inconclusive: 0.501 µM [activator, full curve, poor fit]"
10,O=C(CCN1C(=O)c2ccccc2S1(=O)=O)Nc1ccc2c(c1)OCCO2,"inconclusive: 7.94 µM [activator, partial curve]"
11,O=c1[nH]c(C2CCN(S(=O)(=O)c3ccccc3C(F)(F)F)CC2)nc2c1nnn2Cc1ccccc1,"inconclusive: 35.5 µM [activator, single point]"
12,C/C(=C\C1CCCCC1)C(NC(=O)c1cccnc1)c1ccc(-c2ccccc2)cc1 (stereo not drawn),"inconclusive: 8.91 µM [activator, partial curve]"
13,Cc1ccc(C(=O)NC2CCCc3c2cnn3-c2ccc(F)cc2F)cn1 (stereo not drawn),"inconclusive: 35.5 µM [inhibitor, single point]"
14,CCCCNS(=O)(=O)c1ccc2nc(SCC(=O)Nc3ccccc3)[nH]c2c1,"inconclusive: 31.6 µM [activator, single point]"
15,COc1ccc(C(=O)c2ccc(CC(=O)O)s2)cc1,"inconclusive: 14.1 µM [inhibitor, partial curve, poor fit]"
16,Cc1cc(C)n(CCC(=O)N2CCCC(N3CCN(c4cccc(Cl)c4)CC3)C2)n1 (stereo not drawn),"inconclusive: 0.631 µM [inhibitor, single point]"
17,COc1cc(O)c(C(CC(=O)N2CCN(c3ccccc3)CC2)c2cc(OC)c(OC)c(OC)c2)c(OC)c1 (stereo not drawn),"inactive and inconclusive: 2.24 µM [activator, partial curve, poor fit]"
18,CNS(=O)(=O)c1cccc(C(=O)OCc2cc(=O)oc3c(C)c(O)ccc23)c1,"inconclusive: 12.6 µM [activator, single point]"
19,O=C1/C(=C/c2cccc([N+](=O)[O-])c2)CCc2ccccc21,"inconclusive: 31.6 µM [inhibitor, single point]"
20,CCOC(=O)N1CCN(S(=O)(=O)c2ccc(OCC(=O)OC)cc2)CC1,inactive
21,CSCCC(NS(=O)(=O)c1ccc(C)cc1)C(=O)N1CCCC1 (stereo not drawn),"inconclusive: 2.24 µM [activator, partial curve, poor fit]"
